In US20140287434A1:
These are yes or no findings as the source states them, for the method shown. Binding seen in cells or lysates may run through a third protein. Some results given as binding are weak or reduced against the parent protein; the word gives no strength. Sequences can lack the tags named with a protein.

Amino acid sequences for entries named in this document (tags omitted). Residues count along the entry.
UniProt Q03526, residues 362-625: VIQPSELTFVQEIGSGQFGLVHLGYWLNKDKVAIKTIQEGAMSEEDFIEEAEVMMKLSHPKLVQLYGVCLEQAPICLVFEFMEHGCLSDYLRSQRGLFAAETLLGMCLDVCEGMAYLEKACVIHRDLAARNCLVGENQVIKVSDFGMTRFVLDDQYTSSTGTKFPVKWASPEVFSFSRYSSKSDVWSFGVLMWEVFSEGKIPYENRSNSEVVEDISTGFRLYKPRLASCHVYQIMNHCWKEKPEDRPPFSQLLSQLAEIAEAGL

Experiments:
[1] = target: FLAG-tagged Itk KD expressed alone (without Lck) (mouse) (UniProt Q03526); assay: GST pull-down on glutathione beads, anti-FLAG blot (FIG. 3g, lane 2)
[2] = target: FLAG-tagged Itk KD expressed alone (without Lck) (mouse) (UniProt Q03526); assay: GST pull-down (FIG. 3g)
[3] = target: FLAG-tagged Itk KD co-expressed with Lck and treated with alkaline phosphatase (mouse) (UniProt Q03526); assay: GST pull-down (FIG. 3g)
[4] = target: FLAG-tagged Itk KD co-expressed with Lck and treated with alkaline phosphatase (mouse) (UniProt Q03526); assay: GST pull-down on glutathione beads, anti-FLAG blot (FIG. 3g, lane 6)

- binding [1]: binds
- binding [2]: binds
- binding [3]: binds
- binding [4]: binds
B1: GST-PLCγ1 C-terminal SH2 domain (GST-PLCγ1 SH2C) (protein, rat, UniProt P10686 659-756, looked up, not shown: a dimerising Fc or GST)
chain: QTNAHESKEWYHASLTRAQAEHMLMRVPRDGAFLVRKRNEPNSYAISFRAEGKIKHCRVQQEGQTVMLGNSEFDSLVDLISYYEKHPLYRKMKLRYPI
